For the assay, the target named is T1, BirA-FOXB2 (human) (UniProt Q5VYV0).
T1 sequence: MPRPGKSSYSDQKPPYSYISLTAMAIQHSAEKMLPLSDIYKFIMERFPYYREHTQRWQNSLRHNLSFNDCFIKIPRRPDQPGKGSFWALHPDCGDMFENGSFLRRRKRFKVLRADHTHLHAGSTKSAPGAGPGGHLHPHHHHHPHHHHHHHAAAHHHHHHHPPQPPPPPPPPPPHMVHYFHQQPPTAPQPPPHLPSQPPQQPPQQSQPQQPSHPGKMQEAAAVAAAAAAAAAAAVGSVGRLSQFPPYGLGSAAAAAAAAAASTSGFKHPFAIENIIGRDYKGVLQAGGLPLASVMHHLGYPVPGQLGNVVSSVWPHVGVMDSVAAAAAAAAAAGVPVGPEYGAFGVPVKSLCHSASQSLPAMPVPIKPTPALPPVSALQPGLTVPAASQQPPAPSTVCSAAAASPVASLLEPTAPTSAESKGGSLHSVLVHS
Description: proximity labelling.

The chains behind the UniProt entries cited, without tags or fusion partners.
UniProt P17844: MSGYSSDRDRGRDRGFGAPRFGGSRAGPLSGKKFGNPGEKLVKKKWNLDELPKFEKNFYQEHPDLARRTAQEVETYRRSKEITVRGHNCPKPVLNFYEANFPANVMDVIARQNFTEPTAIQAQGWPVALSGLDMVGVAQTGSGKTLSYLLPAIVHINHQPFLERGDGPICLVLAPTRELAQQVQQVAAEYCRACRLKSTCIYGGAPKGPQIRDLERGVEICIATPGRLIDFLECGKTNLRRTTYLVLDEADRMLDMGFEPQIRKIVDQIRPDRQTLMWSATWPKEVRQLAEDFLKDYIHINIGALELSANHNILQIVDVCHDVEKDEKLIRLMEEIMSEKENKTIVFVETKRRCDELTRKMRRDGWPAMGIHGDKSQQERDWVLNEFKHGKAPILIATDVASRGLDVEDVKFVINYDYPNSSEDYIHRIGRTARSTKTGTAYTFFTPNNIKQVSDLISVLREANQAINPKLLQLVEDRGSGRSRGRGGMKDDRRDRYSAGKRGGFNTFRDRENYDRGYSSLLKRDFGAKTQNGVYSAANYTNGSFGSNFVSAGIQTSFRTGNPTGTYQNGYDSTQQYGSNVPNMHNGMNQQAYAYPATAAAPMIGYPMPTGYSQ
UniProt P35637: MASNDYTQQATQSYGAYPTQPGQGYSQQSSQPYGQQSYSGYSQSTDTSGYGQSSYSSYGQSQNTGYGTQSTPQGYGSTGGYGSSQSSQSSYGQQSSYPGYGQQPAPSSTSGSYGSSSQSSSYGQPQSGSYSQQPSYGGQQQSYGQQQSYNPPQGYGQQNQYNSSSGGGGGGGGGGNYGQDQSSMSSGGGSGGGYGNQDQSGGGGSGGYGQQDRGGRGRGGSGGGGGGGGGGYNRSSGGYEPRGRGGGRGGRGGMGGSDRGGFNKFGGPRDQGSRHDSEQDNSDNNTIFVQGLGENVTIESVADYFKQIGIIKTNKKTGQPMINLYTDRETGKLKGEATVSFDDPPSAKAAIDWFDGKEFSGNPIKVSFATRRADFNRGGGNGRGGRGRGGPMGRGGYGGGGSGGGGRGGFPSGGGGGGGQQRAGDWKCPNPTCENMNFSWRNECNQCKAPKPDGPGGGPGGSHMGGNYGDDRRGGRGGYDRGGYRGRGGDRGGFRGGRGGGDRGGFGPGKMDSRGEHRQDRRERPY
UniProt P05412: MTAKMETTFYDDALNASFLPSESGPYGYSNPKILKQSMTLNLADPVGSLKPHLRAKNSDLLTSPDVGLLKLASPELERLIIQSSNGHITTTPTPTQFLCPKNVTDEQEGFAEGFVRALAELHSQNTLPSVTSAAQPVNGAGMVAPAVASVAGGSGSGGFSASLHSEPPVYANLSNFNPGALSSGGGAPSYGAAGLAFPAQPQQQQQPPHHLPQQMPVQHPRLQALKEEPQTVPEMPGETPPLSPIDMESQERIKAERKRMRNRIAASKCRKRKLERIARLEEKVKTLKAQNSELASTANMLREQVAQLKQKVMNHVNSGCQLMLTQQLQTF
UniProt P09874: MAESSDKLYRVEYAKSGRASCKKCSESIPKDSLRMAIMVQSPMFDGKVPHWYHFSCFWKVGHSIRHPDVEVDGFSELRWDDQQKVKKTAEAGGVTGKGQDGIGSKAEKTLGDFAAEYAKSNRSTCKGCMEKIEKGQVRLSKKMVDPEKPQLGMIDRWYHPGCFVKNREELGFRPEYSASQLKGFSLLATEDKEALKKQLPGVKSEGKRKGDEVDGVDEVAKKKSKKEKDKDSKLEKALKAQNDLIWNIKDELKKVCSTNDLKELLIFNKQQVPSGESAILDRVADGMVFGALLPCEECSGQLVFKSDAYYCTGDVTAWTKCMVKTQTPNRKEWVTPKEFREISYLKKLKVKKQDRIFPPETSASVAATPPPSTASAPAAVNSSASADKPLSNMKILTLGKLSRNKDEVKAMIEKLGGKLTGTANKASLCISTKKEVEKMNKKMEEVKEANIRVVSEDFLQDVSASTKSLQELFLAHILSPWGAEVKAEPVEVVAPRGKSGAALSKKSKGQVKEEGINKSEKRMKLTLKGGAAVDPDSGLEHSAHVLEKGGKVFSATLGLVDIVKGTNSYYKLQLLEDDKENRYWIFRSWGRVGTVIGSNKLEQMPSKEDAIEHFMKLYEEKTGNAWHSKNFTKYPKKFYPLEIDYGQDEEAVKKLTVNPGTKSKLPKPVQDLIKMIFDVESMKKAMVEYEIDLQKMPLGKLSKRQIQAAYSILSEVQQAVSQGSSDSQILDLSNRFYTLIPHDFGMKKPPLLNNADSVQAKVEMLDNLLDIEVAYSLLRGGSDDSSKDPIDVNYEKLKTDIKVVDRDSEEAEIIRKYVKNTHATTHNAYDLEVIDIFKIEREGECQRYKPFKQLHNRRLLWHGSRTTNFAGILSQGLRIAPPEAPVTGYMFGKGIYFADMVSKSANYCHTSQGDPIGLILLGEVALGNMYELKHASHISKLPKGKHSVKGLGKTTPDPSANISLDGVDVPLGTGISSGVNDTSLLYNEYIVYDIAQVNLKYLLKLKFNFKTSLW
UniProt P46937: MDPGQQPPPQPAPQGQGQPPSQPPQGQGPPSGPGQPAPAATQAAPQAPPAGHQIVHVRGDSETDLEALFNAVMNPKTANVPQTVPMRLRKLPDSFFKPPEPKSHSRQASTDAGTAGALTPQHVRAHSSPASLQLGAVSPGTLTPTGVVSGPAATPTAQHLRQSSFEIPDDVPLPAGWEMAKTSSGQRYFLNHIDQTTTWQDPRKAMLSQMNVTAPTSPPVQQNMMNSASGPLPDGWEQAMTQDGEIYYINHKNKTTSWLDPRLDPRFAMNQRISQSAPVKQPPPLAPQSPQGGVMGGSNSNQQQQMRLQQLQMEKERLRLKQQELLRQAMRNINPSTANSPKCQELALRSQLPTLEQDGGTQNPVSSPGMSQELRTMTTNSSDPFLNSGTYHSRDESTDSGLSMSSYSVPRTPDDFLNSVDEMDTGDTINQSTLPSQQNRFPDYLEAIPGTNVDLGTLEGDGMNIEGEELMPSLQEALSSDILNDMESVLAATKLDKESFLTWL
UniProt Q9H7S9: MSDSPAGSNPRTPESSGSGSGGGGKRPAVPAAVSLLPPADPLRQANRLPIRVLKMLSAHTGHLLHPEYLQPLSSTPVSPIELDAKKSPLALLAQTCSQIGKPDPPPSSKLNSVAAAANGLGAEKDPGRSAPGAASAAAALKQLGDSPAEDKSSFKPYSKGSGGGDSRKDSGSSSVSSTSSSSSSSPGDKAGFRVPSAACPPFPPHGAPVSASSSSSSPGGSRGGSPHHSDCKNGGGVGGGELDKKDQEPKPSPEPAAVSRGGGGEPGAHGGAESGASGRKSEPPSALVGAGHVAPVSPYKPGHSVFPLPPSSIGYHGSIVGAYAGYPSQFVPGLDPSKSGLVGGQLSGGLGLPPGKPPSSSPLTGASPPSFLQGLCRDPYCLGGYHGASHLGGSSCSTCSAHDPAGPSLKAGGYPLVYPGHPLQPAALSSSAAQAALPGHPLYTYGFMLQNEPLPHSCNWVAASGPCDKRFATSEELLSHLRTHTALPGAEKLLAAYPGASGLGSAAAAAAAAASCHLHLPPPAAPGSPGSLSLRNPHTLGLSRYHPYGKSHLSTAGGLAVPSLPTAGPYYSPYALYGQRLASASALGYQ
UniProt P35222: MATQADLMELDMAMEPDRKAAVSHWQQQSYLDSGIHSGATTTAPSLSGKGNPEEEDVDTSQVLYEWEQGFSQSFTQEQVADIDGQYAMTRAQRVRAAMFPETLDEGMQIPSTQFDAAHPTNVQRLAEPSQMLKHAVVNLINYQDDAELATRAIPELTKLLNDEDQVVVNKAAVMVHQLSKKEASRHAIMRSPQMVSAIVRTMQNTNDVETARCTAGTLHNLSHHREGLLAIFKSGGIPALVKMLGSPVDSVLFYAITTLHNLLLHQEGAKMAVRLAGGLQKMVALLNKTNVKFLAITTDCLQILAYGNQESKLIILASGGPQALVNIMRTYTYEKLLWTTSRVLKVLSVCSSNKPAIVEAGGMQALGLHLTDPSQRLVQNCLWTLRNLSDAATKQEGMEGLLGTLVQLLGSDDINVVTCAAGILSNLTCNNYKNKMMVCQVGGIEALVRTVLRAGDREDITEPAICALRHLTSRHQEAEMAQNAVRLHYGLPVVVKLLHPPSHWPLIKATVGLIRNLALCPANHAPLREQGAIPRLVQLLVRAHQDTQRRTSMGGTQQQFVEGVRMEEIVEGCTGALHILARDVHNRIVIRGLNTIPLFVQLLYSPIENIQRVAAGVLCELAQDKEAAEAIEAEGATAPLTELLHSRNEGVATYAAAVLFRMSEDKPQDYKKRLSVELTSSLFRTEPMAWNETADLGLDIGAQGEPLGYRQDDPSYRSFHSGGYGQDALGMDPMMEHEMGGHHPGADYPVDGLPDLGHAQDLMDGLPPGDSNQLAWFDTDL

These are yes or no findings as the source states them, for the method shown. In cells and extracts the contact can be indirect. These calls come from enrichment with a bait or labelling near it, and not all partners need be listed. A no says only that the protein was not detected with the bait.

As to DDX5 (from UniProt P17844 1-614), the binding entry is given as “binds”.

Take FUS (from UniProt P35637 1-526): the binding entry was “binds”.

On to JUN (from UniProt P05412 1-331), for which the binding entry was “binds”.

For PARP1 (from UniProt P09874 1-1014), the binding entry is reported as “binds”.

For the molecule YAP1 (from UniProt P46937 1-504), the binding result is given as “binds”.

Turning to ZNF703 (from UniProt Q9H7S9 1-590), the binding result is on record as “binds”.

“endogenous β-catenin (293T) (from UniProt P35222 1-781)”: the binding result is given as “no binding”.

Consider hnRNP K (from UniProt P61978 1-463), for which the binding entry was “binds”.

B1: NONO (protein, UniProt Q15233 1-471)
chain: MQSNKTFNLEKQNHTPRKHHQHHHQQQHHQQQQQQPPPPPIPANGQQASSQNEGLTIDLKNFRKPGEKTFTQRSRLFVGNLPPDITEEEMRKLFEKYGKAGEVFIHKDKGFGFIRLETRTLAEIAKVELDNMPLRGKQLRVRFACHSASLTVRNLPQYVSNELLEEAFSVFGQVERAVVIVDDRGRPSGKGIVEFSGKPAARKALDRCSEGSFLLTTFPRPVTVEPMDQLDDEEGLPEKLVIKNQQFHKEREQPPRFAQPGSFEYEYAMRWKALIEMEKQQQDQVDRNIKEAREKLEMEMEAARHEHQVMLMRQDLMRRQEELRRMEELHNQEVQKRKQLELRQEEERRRREEEMRRQQEEMMRRQQEGFKGTFPDAREQEIRMGQMAMGGAMGINNRGAMPPAPVPAGTPAPPGPATMMPDGTLGLTPPTTERFGQAATMEGIGAIGGTPPAFNRAAPGAEFAPNKRRRY
With B1, the binding entry is on record as “binds”.

(Values after publication doi:10.1101/564625.)
